Patent US5889152A, “Porphenins--antibiotic peptides” (Regents of the University of California, priority 1995, dated 1999)
Not every detail of the peptide structures is certain; ends, links or a residue may be inferred. Where no end group is shown, it is not given here.

Tested on: lipid polysaccharide (LPS) of the Gram-negative bacterium E. coli strain 0.55B5
Assay: Limulus amebocyte lysate (LAL) test for endotoxin binding
Type: biochemical
Conditions: LPS 0.05 endotoxin unit/ml
Description: The prophenins of the invention were tested for their ability to bind the lipid polysaccharide (LPS) of the Gram-negative bacterium E. coli strain 0.55B5. The assay was the Limulus amebocyte lysate (LAL) test for endotoxins conducted in the presence and absence of the test compounds. The test was conducted using the procedure described in Sigma Technical Bulletin No. 210 as revised in December 1992 and published by Sigma Chemical Company, St. Louis, Mo.
The LAL test is based on the ability of LPS to effect gelation in the commercial reagent E-TOXATE™ which is prepared from the lysate of circulating amebocytes of the Horseshoe Crab Limulus polyphemus. As described in the technical bulletin, when exposed to minute quantities of LPS, the lysate increases in opacity as well as viscosity and may gel or clot depending on the concentration of endotoxin. The technical bulletin goes on to speculate that the mechanism appears analogous to the clotting of mammalian blood and involves the steps of activation of a trypsin-like preclotting enzymes by the LPS in the presence of calcium ion, followed by enzymic modifications of a "coagulogen" by proteolysis to produce a clottable protein. These steps are believed tied to the biologically active or "pyrogenic" portion of the molecule. It has been shown previously that detoxified LPS (or endotoxin) gives a negative LAL test.
Polymyxin B is a cyclic 1.2 kD acylated […] obtained from Bacillus polymyxa. Polymyxin B was used as a positive control since it is known to inhibit LPS-induced Limulus hemocyte lysate clotting.
In the assay, the amounts of prophenin-1 and polymyxin B (78% free polymyxin, Sigma) were preincubated in a final volume of 0.2 ml and the test mixtures contained LPS at a final concentration of 0.05 endotoxin unit/ml and E-TOXATE™ at the same concentration. The test compounds were incubated together with the LPS for 15 minutes before the E-TOXATE™ was added to a final volume (after E-TOXATE™ addition) of 0.2 ml. The tubes were then incubated for 60 minutes at 37° C. and examined for the formation of a gel.
The ability of fragments of prophenin-1 to bind LPS was also assayed. Prophenin-1 was digested with TLCK treated trypsin as described above, thus cleaving the protein C-terminal to the initial 4 arginines. The fragments were purified by RP-HPLC, and their identities were verified by ESI-MS and amino acid composition analysis. The three fragments were those obtained as described in Example 1 and are as follows: […]

[1] = peptide 0.63 μg/ml (.625 in Table 4)

| Sequence | LAL gel formation (peptide 0.16 μg/ml) | LAL gel formation (peptide 0.31 μg/ml) | LAL gel formation [1] | LAL gel formation (peptide 1.25 μg/ml) | LAL gel formation (peptide 2.5 μg/ml) | LAL gel formation (peptide 5.0 μg/ml) | LAL gel formation (peptide 10.0 μg/ml) |
| --- | --- | --- | --- | --- | --- | --- | --- |
| FPPPNFPGPPFPPPIFPGPWFPPPPPFRPPPFGPPR [Fraction 3] | ++ | ++ | ++ | + | + | + | 0 |
| FPPPNFPGPR [Fraction 2] | ++ | ++ | ++ | + | + | 0 | 0 |
